These results are taken from the odorant receptor screen of Mainland et al. (2015).

SMILES strings stand for the structures. Values joined by “and” are separate entries in the source; they are usually repeats but may differ in a detail not shown here. Equal entries are not always repeated. Some of the results follow. Each value is one well over the wells without odorant, computed here; the data are noisy.

Test systems include OR5M1 S282T clone 1208; OR5M10 V69L clone 1125; OR5M11 clone 1236; OR5M8 clone 1523; OR5M9 clone 1194; OR5P2 clone 1185; OR5P3 clone 1115; OR5R1 clone 1162; OR5T1 clone 1249; OR5T1 clone 1399.
Common to all, as to assay: odorant receptor activation (CRE luciferase / Renilla) (fold of no-odor wells); higher = more activation
Common to all, as to details: 100 µM

Take `CCCCCCCCC=O` [nonyl aldehyde]: the odorant receptor activation with OR5M1 S282T clone 1208 was determined as 0.965; in the assay with OR5M10 V69L clone 1125, 1.22; in the assay with OR5M11 clone 1236, 0.819; in the assay on OR5M8 clone 1523, 0.828; in the assay on OR5M9 clone 1194, 0.991; with OR5P2 clone 1185, 0.981. The odorant receptor activation with OR5P3 clone 1115 was found to be 1.63; with OR5R1 clone 1162, 0.912; in the assay with OR5T1 clone 1249, 1.01; in the assay with OR5T1 clone 1399, 0.794.

On to `C=CCSCC=C` [diallyl sulfide], for which the odorant receptor activation in the assay with OR5M1 S282T clone 1208 was 1.03; in the assay with OR5M10 V69L clone 1125, 1.08; in the assay with OR5M11 clone 1236, 0.705; with OR5M8 clone 1523, 1.27; in the assay on OR5M9 clone 1194, 0.891; with OR5P2 clone 1185, 1.41. In addition, the odorant receptor activation was found to be 1.07 with OR5P3 clone 1115, 1.26 with OR5R1 clone 1162, 0.971 in the assay with OR5T1 clone 1249 and 0.932 with OR5T1 clone 1399.

Regarding `CCCCCCCC=O` [octyl aldehyde], the odorant receptor activation was determined as 0.906 in the assay with OR5M1 S282T clone 1208; 1.14 with OR5M10 V69L clone 1125; 0.869 in the assay with OR5M11 clone 1236; 1.1 with OR5M8 clone 1523; 0.886 in the assay on OR5M9 clone 1194; 1.26 with OR5P2 clone 1185. The odorant receptor activation in the assay with OR5P3 clone 1115 came to 1.3; in the assay with OR5R1 clone 1162, 1.11; with OR5T1 clone 1249 it was 1.36; with OR5T1 clone 1399, 0.905.

As for `CC(C)=CCCC(C)=CC=O` [citral], the odorant receptor activation with OR5M1 S282T clone 1208 was determined as 1.06; in the assay on OR5M10 V69L clone 1125, 0.941; with OR5M11 clone 1236 it was 1.14; with OR5M8 clone 1523 it was 1.08; with OR5M9 clone 1194 it was 1.35; in the assay on OR5P2 clone 1185, 1.19. For the same compound, the odorant receptor activation turned out to be 0.993 with OR5P3 clone 1115, 1.07 in the assay with OR5R1 clone 1162, 1.1 with OR5T1 clone 1249 and 0.268 in the assay on OR5T1 clone 1399.

In the case of `C=CCc1ccc(OC(C)=O)c(OC)c1` [eugenol acetate], the odorant receptor activation amounted to 1.42 in the assay with OR5M1 S282T clone 1208; 1.21 in the assay on OR5M10 V69L clone 1125; 1.31 with OR5M11 clone 1236; 1.09 in the assay with OR5M8 clone 1523; 1.71 with OR5M9 clone 1194; 2.69 with OR5P2 clone 1185. For the same compound, the odorant receptor activation in the assay on OR5P3 clone 1115 was 1.81; with OR5R1 clone 1162, 2.18; in the assay with OR5T1 clone 1249, 1.72; in the assay on OR5T1 clone 1399, 1.5.

Turning to `c1cnccn1` [pyrazine], the odorant receptor activation in the assay with OR5M1 S282T clone 1208 was 0.778; in the assay on OR5M10 V69L clone 1125, 1.06; in the assay with OR5M11 clone 1236, 0.916; in the assay with OR5M8 clone 1523, 0.671; in the assay with OR5M9 clone 1194, 0.81; in the assay with OR5P2 clone 1185, 1.09. For the same compound, the odorant receptor activation in the assay on OR5P3 clone 1115 is 0.843; with OR5R1 clone 1162 it was 0.765; with OR5T1 clone 1249, 0.762; with OR5T1 clone 1399, 1.26.

Consider `COc1cc(C=O)ccc1O` [vanillin], for which the odorant receptor activation came to 0.828 in the assay with OR5M1 S282T clone 1208; 0.846 in the assay with OR5M10 V69L clone 1125; 0.599 with OR5M11 clone 1236; 0.971 in the assay with OR5M8 clone 1523; 1.13 in the assay with OR5M9 clone 1194; 1.36 with OR5P2 clone 1185. Also, the odorant receptor activation in the assay with OR5P3 clone 1115 was 0.864; with OR5R1 clone 1162, 0.86; in the assay with OR5T1 clone 1249, 0.947; in the assay on OR5T1 clone 1399 it was 0.98.

Turning to `CCCCCCCCCC=O` [decyl aldehyde], the odorant receptor activation in the assay on OR5M1 S282T clone 1208 was 1.22; in the assay with OR5M10 V69L clone 1125 it was 1.03; in the assay with OR5M11 clone 1236, 0.808; with OR5M8 clone 1523, 0.908; in the assay on OR5M9 clone 1194, 1.2; in the assay on OR5P2 clone 1185, 1.52. The odorant receptor activation in the assay on OR5P3 clone 1115 is 1.14; in the assay with OR5R1 clone 1162, 1.34; in the assay with OR5T1 clone 1249, 1.06; in the assay with OR5T1 clone 1399, 1.05.

Take `CC(C)C=O` [isobutyraldehyde]: the odorant receptor activation is 1.07 with OR5M1 S282T clone 1208; 0.673 with OR5M10 V69L clone 1125; 0.972 in the assay on OR5M11 clone 1236; 0.876 and 1.05 in the assay on OR5M8 clone 1523; 1.11 in the assay with OR5M9 clone 1194; 1.15 with OR5P2 clone 1185. Also, the odorant receptor activation in the assay on OR5P3 clone 1115 is 0.668; in the assay with OR5R1 clone 1162 it was 1.09; in the assay with OR5T1 clone 1249, 1.18 and 1.51; in the assay on OR5T1 clone 1399 it was 0.891.

As for `COC(=O)c1ccccc1O` [methyl salicylate], the odorant receptor activation with OR5M1 S282T clone 1208 is 0.843; in the assay on OR5M10 V69L clone 1125, 0.945; in the assay with OR5M11 clone 1236, 0.817; with OR5M8 clone 1523 it was 1.14; in the assay with OR5M9 clone 1194 it was 0.921; in the assay with OR5P2 clone 1185, 0.959. The odorant receptor activation with OR5P3 clone 1115 is 2.81; in the assay on OR5R1 clone 1162, 0.853; in the assay on OR5T1 clone 1249 it was 0.985; with OR5T1 clone 1399 it was 1.18.

As to `CC(C)CCC(=O)O` [4-methylvaleric acid], the odorant receptor activation was determined as 1.05 in the assay on OR5M1 S282T clone 1208; 0.893 in the assay on OR5M10 V69L clone 1125; 0.77 in the assay with OR5M11 clone 1236; 0.835 in the assay with OR5M8 clone 1523; 0.847 in the assay with OR5M9 clone 1194; 0.816 with OR5P2 clone 1185. Also, the odorant receptor activation in the assay on OR5P3 clone 1115 stood at 2.69; in the assay with OR5R1 clone 1162 it was 1.06; with OR5T1 clone 1249, 1.19; in the assay with OR5T1 clone 1399 it was 1.54.
